{"source": "patent US20100196919A1", "about": "“PEPTIDES, ANTIBODIES AND FRAGMENTS THEREOF FOR THE TREATMENT AND DIAGNOSTIC OF CELIAC DISEASE” (UNIVERSITÀ DEGLI STUDI DI VERONA, priority 2007, published 2010)", "key": {"serum IgG antibodies": {"system": "serum IgG antibodies", "experiment": "ELISA for serum IgG antibodies against the synthetic peptides", "format": "binding, human", "details": "60 patients with CD"}, "serum IgA": {"system": "serum IgA", "experiment": "ELISA for serum IgA antibodies against the synthetic peptides", "format": "binding, human", "details": "60 patients' sera (45 out of 60)"}}}
{"sequence": "VIQVGGSNVLDI [VP-7 peptide]", "values": [{"measurement": "frequency of IgG antibodies against the peptide", "setting": "serum IgG antibodies", "value": 91, "unit": "%"}, {"measurement": "patients' sera with IgA antibodies against the peptide", "setting": "serum IgA", "value": 75, "unit": "%"}]}
